Experimental data as given in the supplement of paper PMC10849652.
The other results are listed elsewhere or left out.

Sequences of proteins named here, by UniProt entry; tags and fusion partners are left off. A change or cut given only in a name is not applied to a line headed by its entry.
UniProt A6NHR9: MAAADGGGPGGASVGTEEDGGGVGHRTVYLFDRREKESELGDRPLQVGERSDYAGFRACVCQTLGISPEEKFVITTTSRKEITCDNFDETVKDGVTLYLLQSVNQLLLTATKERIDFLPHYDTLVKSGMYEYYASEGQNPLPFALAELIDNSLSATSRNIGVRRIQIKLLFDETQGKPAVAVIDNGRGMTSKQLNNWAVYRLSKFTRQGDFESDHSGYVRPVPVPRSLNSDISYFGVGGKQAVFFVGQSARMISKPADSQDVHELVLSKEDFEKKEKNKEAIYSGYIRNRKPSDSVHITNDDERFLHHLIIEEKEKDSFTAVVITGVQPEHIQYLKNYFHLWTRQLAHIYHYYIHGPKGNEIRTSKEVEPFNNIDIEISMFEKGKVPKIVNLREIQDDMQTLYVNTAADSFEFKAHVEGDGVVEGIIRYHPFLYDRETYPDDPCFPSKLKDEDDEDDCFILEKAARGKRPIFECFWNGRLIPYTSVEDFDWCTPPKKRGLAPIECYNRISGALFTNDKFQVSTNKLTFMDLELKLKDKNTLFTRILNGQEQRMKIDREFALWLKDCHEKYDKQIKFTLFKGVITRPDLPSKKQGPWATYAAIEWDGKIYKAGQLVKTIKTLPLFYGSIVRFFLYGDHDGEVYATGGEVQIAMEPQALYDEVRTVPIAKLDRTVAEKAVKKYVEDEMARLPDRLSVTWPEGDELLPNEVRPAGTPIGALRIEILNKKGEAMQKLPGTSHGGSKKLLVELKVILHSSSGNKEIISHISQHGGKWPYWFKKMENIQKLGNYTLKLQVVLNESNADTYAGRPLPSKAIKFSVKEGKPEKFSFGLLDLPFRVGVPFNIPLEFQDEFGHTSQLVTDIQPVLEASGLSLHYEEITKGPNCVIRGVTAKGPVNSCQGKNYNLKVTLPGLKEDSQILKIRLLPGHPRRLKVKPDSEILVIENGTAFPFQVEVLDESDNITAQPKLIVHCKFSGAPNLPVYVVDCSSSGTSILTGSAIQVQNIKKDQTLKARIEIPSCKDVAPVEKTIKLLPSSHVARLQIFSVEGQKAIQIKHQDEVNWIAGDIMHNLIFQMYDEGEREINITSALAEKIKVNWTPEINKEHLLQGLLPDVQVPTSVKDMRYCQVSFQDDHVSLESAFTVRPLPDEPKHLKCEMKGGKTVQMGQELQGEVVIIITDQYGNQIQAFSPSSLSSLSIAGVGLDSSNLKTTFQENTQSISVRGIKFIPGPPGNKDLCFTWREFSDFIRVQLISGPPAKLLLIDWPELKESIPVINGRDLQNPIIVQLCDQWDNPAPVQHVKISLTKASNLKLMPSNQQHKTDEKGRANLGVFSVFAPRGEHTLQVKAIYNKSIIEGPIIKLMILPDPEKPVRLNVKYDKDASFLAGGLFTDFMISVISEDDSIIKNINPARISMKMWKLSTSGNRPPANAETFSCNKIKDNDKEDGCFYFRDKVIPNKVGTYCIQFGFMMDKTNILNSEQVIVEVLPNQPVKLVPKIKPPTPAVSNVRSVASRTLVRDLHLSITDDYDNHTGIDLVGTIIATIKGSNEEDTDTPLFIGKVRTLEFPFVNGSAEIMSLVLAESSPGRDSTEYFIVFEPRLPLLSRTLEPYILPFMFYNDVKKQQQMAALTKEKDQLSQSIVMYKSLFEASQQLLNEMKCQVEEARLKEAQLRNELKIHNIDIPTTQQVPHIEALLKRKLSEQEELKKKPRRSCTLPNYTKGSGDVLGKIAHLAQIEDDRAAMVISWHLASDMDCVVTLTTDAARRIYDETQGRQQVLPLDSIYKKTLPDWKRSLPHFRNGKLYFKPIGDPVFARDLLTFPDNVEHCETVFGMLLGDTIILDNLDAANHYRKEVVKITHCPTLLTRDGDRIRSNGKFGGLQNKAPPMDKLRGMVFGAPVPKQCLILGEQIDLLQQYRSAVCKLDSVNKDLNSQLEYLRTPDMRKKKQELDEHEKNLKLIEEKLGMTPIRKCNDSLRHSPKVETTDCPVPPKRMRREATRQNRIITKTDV
UniProt Q16637, whole entry, looked up: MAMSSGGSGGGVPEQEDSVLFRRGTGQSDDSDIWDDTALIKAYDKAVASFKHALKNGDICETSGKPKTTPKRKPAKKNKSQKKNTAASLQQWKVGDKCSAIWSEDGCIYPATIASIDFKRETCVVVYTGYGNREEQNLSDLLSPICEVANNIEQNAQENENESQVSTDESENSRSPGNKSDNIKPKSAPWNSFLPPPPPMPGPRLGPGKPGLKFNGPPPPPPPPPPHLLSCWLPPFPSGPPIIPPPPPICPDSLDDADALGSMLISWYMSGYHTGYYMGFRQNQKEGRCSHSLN
UniProt Q13425: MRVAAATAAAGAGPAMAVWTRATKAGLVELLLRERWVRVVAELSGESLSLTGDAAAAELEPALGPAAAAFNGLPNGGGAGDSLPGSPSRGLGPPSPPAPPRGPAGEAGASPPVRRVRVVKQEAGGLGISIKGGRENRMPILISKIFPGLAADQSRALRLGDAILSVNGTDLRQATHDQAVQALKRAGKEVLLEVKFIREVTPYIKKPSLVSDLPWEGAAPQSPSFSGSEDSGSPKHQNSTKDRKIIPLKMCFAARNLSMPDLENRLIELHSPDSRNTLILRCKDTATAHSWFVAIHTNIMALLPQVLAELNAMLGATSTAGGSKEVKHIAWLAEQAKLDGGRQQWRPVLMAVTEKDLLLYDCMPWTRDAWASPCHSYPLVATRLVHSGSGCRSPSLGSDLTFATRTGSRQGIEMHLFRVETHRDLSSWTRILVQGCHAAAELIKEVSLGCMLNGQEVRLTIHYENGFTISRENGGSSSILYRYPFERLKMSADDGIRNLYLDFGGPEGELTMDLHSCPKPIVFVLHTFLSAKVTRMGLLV
UniProt Q9H4L7: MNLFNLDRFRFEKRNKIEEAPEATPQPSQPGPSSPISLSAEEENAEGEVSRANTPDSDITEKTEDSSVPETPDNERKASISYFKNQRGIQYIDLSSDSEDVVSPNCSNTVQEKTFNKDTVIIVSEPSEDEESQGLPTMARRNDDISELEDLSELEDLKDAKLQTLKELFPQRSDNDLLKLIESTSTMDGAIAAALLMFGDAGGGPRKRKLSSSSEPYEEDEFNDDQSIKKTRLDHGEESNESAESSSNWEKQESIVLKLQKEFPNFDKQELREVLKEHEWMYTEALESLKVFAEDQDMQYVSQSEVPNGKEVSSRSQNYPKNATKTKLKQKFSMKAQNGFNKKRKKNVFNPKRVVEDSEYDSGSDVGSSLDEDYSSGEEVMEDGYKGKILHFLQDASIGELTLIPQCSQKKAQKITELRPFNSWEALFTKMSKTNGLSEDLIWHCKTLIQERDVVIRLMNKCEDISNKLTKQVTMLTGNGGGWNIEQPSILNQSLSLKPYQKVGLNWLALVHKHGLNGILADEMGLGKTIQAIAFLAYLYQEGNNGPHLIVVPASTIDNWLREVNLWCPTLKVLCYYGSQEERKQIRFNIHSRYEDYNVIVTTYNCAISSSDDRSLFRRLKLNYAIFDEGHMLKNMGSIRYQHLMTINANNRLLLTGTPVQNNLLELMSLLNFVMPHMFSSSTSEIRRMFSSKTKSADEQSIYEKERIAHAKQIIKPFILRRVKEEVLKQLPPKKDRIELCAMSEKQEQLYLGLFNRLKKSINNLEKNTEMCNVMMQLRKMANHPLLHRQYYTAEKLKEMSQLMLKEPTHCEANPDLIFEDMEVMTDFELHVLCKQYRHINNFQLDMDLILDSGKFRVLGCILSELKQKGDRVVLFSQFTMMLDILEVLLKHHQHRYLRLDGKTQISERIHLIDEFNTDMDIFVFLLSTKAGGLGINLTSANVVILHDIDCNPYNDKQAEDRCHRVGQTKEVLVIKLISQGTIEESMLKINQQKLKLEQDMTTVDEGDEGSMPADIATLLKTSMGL
UniProt P62306, whole entry, looked up: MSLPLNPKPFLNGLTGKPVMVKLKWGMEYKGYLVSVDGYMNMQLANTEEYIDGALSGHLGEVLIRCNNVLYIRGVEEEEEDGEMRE
UniProt O75643, whole entry, looked up: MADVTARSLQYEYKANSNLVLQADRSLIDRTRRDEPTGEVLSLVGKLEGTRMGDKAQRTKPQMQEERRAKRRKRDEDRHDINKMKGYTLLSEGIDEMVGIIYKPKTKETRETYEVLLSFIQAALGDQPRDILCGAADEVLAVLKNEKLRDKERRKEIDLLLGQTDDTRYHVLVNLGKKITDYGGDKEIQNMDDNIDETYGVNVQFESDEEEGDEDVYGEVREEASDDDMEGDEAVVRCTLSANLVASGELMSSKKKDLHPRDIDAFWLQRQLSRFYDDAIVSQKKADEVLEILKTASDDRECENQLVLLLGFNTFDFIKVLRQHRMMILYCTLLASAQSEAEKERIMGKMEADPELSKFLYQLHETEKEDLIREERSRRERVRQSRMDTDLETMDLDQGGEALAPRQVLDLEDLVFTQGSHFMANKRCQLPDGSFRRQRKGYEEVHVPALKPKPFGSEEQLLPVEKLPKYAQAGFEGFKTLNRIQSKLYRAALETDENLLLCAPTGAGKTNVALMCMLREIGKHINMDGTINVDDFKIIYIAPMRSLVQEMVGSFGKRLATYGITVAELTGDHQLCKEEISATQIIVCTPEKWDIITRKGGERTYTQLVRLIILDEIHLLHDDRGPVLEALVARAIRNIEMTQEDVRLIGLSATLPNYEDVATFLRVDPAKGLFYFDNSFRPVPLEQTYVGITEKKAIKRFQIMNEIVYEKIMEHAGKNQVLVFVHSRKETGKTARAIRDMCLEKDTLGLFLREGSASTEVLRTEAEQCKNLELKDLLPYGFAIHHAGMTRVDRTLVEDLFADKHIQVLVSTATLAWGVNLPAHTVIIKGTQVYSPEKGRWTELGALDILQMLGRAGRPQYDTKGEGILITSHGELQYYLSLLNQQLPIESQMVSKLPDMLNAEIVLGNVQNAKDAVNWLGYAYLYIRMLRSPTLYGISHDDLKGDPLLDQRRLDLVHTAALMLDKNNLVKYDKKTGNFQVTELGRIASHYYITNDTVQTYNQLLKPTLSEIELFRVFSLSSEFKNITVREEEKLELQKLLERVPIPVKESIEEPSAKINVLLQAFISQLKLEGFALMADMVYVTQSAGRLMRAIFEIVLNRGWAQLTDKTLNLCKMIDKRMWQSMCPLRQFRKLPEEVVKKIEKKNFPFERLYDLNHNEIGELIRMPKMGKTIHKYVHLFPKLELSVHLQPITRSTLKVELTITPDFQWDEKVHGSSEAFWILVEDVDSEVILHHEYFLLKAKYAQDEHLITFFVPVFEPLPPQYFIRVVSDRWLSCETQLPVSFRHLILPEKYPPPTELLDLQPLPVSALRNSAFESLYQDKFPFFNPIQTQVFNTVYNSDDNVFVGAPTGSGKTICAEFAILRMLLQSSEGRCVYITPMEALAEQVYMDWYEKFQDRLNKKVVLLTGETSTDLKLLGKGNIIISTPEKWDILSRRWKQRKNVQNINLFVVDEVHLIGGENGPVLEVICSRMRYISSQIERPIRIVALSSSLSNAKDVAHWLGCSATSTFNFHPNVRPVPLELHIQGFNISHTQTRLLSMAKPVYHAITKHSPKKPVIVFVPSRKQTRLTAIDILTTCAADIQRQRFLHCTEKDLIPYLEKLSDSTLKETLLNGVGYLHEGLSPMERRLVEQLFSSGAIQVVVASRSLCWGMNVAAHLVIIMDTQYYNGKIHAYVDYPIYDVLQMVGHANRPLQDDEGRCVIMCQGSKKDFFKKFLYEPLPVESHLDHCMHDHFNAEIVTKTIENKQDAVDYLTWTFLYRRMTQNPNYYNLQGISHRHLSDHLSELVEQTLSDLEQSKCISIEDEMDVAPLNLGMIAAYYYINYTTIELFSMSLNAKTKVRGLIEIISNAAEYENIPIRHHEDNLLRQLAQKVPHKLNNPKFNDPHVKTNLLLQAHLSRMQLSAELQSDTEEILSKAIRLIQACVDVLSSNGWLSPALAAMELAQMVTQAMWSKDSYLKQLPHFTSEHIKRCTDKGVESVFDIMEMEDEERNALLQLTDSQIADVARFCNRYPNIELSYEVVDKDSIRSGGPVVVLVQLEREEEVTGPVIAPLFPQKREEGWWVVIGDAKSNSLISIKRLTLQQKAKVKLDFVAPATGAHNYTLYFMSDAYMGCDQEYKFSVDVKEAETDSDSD
UniProt Q12824, whole entry, looked up: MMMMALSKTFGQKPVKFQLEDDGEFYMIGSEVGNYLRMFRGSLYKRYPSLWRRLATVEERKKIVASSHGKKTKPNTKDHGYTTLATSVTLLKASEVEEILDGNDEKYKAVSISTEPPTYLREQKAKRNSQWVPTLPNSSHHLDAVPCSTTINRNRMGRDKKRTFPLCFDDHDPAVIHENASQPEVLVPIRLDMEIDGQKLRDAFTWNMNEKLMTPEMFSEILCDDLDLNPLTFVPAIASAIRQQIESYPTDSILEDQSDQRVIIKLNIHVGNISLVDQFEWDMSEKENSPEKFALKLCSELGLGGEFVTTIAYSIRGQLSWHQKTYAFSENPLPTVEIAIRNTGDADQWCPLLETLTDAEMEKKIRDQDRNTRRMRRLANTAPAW
UniProt P62304, whole entry, looked up: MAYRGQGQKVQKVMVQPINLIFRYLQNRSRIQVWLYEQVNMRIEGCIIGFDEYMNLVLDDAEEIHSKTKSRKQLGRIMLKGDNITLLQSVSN

Compound: C/C(=N\NC(=O)C1=CC(=CC=C1)S(=O)(=O)N2CCOCC2)/C3=C(C=CC(=C3)Cl)O
Test: log2 fold change, soluble protein after heating vs DMSO (PISA); higher = thermal stabilisation; K562 lysate, 10 uM; active = over 0.2 and 3.5 SD of the protein, either way, in both replicates (recomputed)
Procedure, shortened: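 Values give the log-two fold change in thermal stability against solvent controls, from duplicates. Crude K562 extract at 1 mg/mL protein, made by dounce homogenisation in PBS pH 7.4 with 1 mM MgCl2, was treated with 10 μM compound for 30 min. After 3 min heating across 48°C-58°C, aliquots were pooled, adjusted to 0.5% NP-40 at 4°C and centrifuged at 21,000xg for 90 min. The supernatant was measured by TMTpro 16plex LC-MS/MS with channel sums equalised.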

log2 fold change, active:
SMC1B isoform 3 (UniProt Q8NDV3) 0.265

log2 fold change, inactive:
SNRPG (UniProt P62308) -0.012
SNX27 (UniProt Q96L92) 0.022
SMARCD1 (UniProt Q96GM5) -0.033
SNRNP70 (UniProt P08621) 0.027
SNX2 (UniProt O60749) -0.059
SMARCA4 (UniProt P51532) -0.018
SPAG9 (UniProt O60271) -0.014
SMCHD1 (UniProt A6NHR9) 0.126
SNRPD3 (UniProt P62318) 0.021
SMN1 (UniProt Q16637) 0.009
SNAP23 (UniProt O00161) 0.037
SOGA1 isoform 2 (UniProt O94964) 0.021
SORBS1 isoform 8 (UniProt Q9BX66) -0.033
SNTB2 (UniProt Q13425) -0.066
SMARCAD1 isoform 2 (UniProt Q9H4L7) 0.022
SNX15 (UniProt Q9NRS6) -0.097
SNAPIN (UniProt O95295) 0.019
SPAG7 (UniProt O75391) 0.043
SNX3 (UniProt O60493) 0.018
SNRPF (UniProt P62306) -0.07
SNRNP40 (UniProt Q96DI7) 0.046
SNRNP200 (UniProt O75643) 0.071
SPARC (UniProt P09486) -0.032
SNRPC (UniProt P09234) -0.009
SNX17 (UniProt Q15036) 0.006
SMARCD2 (UniProt Q92925) 0.031
SMARCAL1 (UniProt Q9NZC9) 0.019
SMARCB1 (UniProt Q12824) -0.099
SNRNP48 (UniProt Q6IEG0) 0.187
SNRPC (UniProt Q5TAL2) 0.033
SNX11 (UniProt Q9Y5W9) 0.072
SNCA (UniProt P37840) -0.037
SMU1 (UniProt Q2TAY7) -0.014
SNRPB isoform 3 (UniProt P14678) 0.064
SNRPD2 (UniProt P62316) 0.005
SMARCC2 (UniProt Q8TAQ2) 0.026
SNX6, A0A0A0MRI2 0.056
SNRPE (UniProt P62304) -0.248

A stretch from the list above:
log2 fold change, inactive:
SMCHD1 (UniProt A6NHR9) 0.126
SNRPD3 (UniProt P62318) 0.021
SMN1 (UniProt Q16637) 0.009
SNAP23 (UniProt O00161) 0.037
SOGA1 isoform 2 (UniProt O94964) 0.021
SORBS1 isoform 8 (UniProt Q9BX66) -0.033
SNTB2 (UniProt Q13425) -0.066
SMARCAD1 isoform 2 (UniProt Q9H4L7) 0.022
SNX15 (UniProt Q9NRS6) -0.097
SNAPIN (UniProt O95295) 0.019
